From patent US20150056222A1
Positions count from the first letter of the chain named. No constants are given. Whether binding was seen depends on the method and setting. Some entries that bind do so weakly or less than the wild type.

B1: H1H6762P (antibody, human IgG1, V domains shown)
VH: QVQLVESGGGVVQPGRSLRLSCAASGFTFSHYGMVWVRQPPGKGLEWVALISFDGTTKYYADSVKGRFTISRDNSKNTLYLQMNSLRAEDTAVYFCVGAIAAAAFDLWGRGTLVTVSS
VL: EIVMTQSPATLSVSPGERATLSCRASQSVSSDLAWYQQKPGQAPRLLIYSASARATGIPARFTGSGSGTDFTLTISSLQSEDFAVYYCQQYNNWPMYTFGQGTKLEIK
B2: H1H6765P (antibody, human IgG1, V domains shown)
VH: EVQLVESGGGVVRPGGSLRLSCVGSGFSFDDHGMNWVRQGPGKGLEWVSGFNWNGGSTNYAESVKGRFTISRDNARNSLFLQMNSLRAEDTALYYCVRGRSGWFNDAFDVWGPGTMVTVSS
VL: EIVLTQSPGTLSLSPGERATLSCRASQTINSNYLAWYRQKPGQTPRLLIYGTSSRATGIPDRFSGSGSGTDFSLTISRLEPEDFAVFYCQQYAGLPTFGPGTKVDIK
B3: H1H6781P (antibody, human IgG1, V domains shown)
VH: EVQLVESGGDLVQPGESLRLSCTASGFTFNSYEMNWVRQAPGKGLEWVSYISSSGGTKYYVDSVKGRFTISRDNAKKSLYLQMNSLRADDTALYYCARLNGVDVFDIWGQGTMVTVSS
VL: DIQMTQSPSSLSASVGDRVTITCRASQDIFNYLAWFQQKPGKVPELLISAASTLQSGVPSRFSGSGSGTYFTLTISSLQPEDIATYYCQRYNSAPLTFGGGTKVEIK
B4: H1H6785P (antibody, human IgG1, V domains shown)
VH: EVQLVESGGGLVQPGGSLRLSCAASGFTFSSYEMNWVRQAPGKGLEWISYISSRGGTIYYADSIKGRFTIYRDNARNSLYLQMNSLRAEDTAIYYCARLSGVDIFDIWGQGTMVTVSS
VL: B3 VL with D28G, F30S, F36Y, E45K, S49Y, A50F, S65G, Y70D, I83V
B5: H1H6790P (antibody, human IgG1, V domains shown)
VH: EVQLVESGGGLVQPGGSLRLSCAASGFTFSSYAMTWVRQAPGKGLEWVSAITGSVGNTYYADSVKGRFTISRDNSKNTLYLQMNSLGAEDTAEYYCAKGAGMTTNWYLDLWGRGTLVTVSS
VL: DIVMTQSPDSLAVSLGARATINCKSSQSVLYSSNNQNYLTWYQQKPGQPPKLLIKWASTRESGVPDRFSGSGSGTDFTLTISSLQAEDVAVYYCQQYASSPYTFGQGTKLEIK
B6: H1H6792P (antibody, human IgG1, V domains shown)
VH: EVQLVESGGGLVQPGRSLRLSCAASGFTLDDHAVHWVRQAPGKGLEWVSGISWNSVYIDYADSVKGRFTIFRDNAKNSLYLQMNSLRAEDTAFYYCARDIEGARDYWGQGTLVTVSS
VL: DIQMTQSPSSLSASVGDRVTITCRASQGIRNDLGWYQQKPGKAPKRLIYAASSLQSGVPSRFSGSGYGTEFTLTISSLQPEDFAPYYCLQHNSYPLTFGGGTKVEIK
B7: H1H6800P (antibody, human IgG1, V domains shown)
VH: EVQLVESGGGLVQPGRSLRLSCAASGFTFDGYAMHWVRQGPGKGLEWVSGISWYSDTLGYADSVKGRFTISRDNAKNSLYLQMNSLRTEDTAFYYCAKISSSGWAFDYWGQGTLVTVSS
VL: EIVLTQSPGTLSLSPGERATLSCRASHSVSSAYLAWYQQKPGQTPRLLIYGTSSRATGIPDRFSGSGSGTDFTLTISRLEPEDFAVYYCQQYGSSPLFTFGPGTKVDIK
B8: H1H6803P (antibody, human IgG1, V domains shown)
VH: EVQLVESGGGVVRPGGSLRLSCAASGFKFDDYGMTWVRHVPGKGLEWVSGINWNGGRTGYTDSVKGRFTISRDNAKNSLYLQMNSLRAEDTALYHCAGARRDAFDIWGQGTMVTVSS
VL: DIQMTQSPSSLSASIGDRVTITCRASQNIIKYLNWYQQNAGKAPKLLIYTASSLQSGVPSRFSGSGSGTDFTLTISSLQPEDFATYYCQQSSSSPYTFGQGTKLEIK
B9: H1H6953N (antibody, human IgG1, V domains shown)
VH: EVQLLESGGGLVQPGGTLRLSCAASGFTFSAYAMSWVRQAPGKGLEWVSSINVRAGDTYYADSVKGRFTISRDNSKNTLFLLMNSLRAEDTAAYYCAKARYSSNWGFDFWGQGTLVTVSS
VL: DIVMTQSPDSLTVSLGARTTINCQSSQTILHSSNNHNYLAWYQQKPGLPPKLLIYWSSTRESGVPDRFSGSGSGTDFTLTISSLQAEDVAIYYCQQYSNTPYTFGQGTKLEIN
B10: H1H6958N2 (antibody, human IgG1, V domains shown)
VH: QVQLVESGGGVVQPGRSLRLSCGASGFTFRNYGMQWVRQGPGKGLEWVTLISFDGNDKYYADSVKGRFTISRDNSKNTLFLQMNSLRTEDTAVYYCARGGDFDYWGQGTLVTVSS
VL: DIQMTQSPSSLSASVGDRVTITCRASQDIRKDLGWYQQKPGKAPKRLIYAASSLHSGVPSRFSGSGSGTEFTLTISSLQPEDFATYYCLQHNSYPMYTFGQGTKLEIK
B11: H1H6960N (antibody, human IgG1, V domains shown)
VH: EVQLVESGGGLVKPGGSLRLSCAASGITFSSYSMNWVRQAPGKGLEWVSSISTRSSLIHYADSVKGRFTISRDNAKNSLYLQMNSLRDEDTAVYYCARWDAAAAFDYWGQGTLVIVSS
VL: DIQLTQSPSFLSASVGDRVTITCWASQGISSYLAWYQQKPGKAPKLLIYVASTLQSGVPSRFSGSGSGTEFTLTISSLQPEDFATYFCQQLNSYPLTFGGGTKVEIK
B12: H1H6966N (antibody, human IgG1, V domains shown)
VH: QVQLVQSGAEVQKPGASVKVSCKVSGYTLTALSIHWVRQAPGKGLEWMGNFDPGDGETIHAQKFQGRVTMTGDTSTDTAYMELSSLRSEDTAVYYCVGVTFDYWGQGTLVTVSS
VL: EIVMTQSPATLSVSPGERATLSCRASQSVASNLAWYQQKPGQAPRLLLYGASTRATGIPARFSGSGSGTEFTLTISSLQSEDFALYYCQHYNNWPLTFGGGTKVEIK
B13: H1H6967N (antibody, human IgG1, V domains shown)
VH: EVQLVESGGDLVHPGRSLRLSCAASGFPFDEYAMHWVRQVPGKGLEWVSGISWSNNNIGYADSVKGRFTISRDNAKNSLYLQMNSLRPEDTAFYYCAKSGIFDSWGQGTLVTVSS
VL: B12 VL with A30S, S31R, N32D, L48I, Y49H, T69A, T74I, L85V, H90Q
B14: H1H6975N (antibody, human IgG1, V domains shown)
VH: EVHLVESGGGLVQPGGSLRLSCAASGFTFSSYEMNWVRQTPGKGLEWISHISSRSVIIYYADSVKGRFTISRDNAKNSLFLQMNSLRAEDTAVYFCAGITIFGIPEYWGQGTLVTVSS
VL: EIVLTQSPATLSLSPGERATLSCRASQSVSSYFAWYQQKPGQAPRLLIYDASSRATGIPTRFSGSGSGTDFTLTISSLEPEDFAVYYCQQRSSWPITFGQGTRLEIK

Target: monkey (macaca fascicularis) PRLR on HEK293 cells (macaca fascicularis)
Assay: FACS; footnote: specific binding on HEK293/hPRLR, HEK293/mfPRLR and T47D

binding, binds:
B1
B2
B3
B4
B5
B6
B7
B8
B9
B10
B11
B12
B13
B14
